About 20 (0.006%) of roughly 330,000 compounds were called active. The shares of active, inactive and inconclusive entries below differ from those in the screen. Calls come from the whole dose curve; as a rule, active = well fitted inhibition curve with a large enough effect; inconclusive = small, poorly fitted or top-dose-only effect, or effect the other way; inactive = flat fitted curve, though single readings scatter. Where the call is inconclusive, the potency comes from a doubtful curve fit.
Each compound was assayed against Protein phosphatase EYA2 (Homo sapiens) (UniProt O00167) (assay: qHTS Assay for Inhibitors of the Phosphatase Activity of Eya2). Conditions: recombinant Eya2, OMFP fluorescence dephosphorylation (OMFP is methylfluorescein phosphate); activity, negative = inhibition: at 76.9 µM (top of the series) unless noted.
Outline: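 Eya2 (0.2 uM) preincubated 10 min at ambient with compound, then OMFP substrate added at 50 uM; 10 min reaction in 50 mM HEPES pH 7.5, 50 mM NaCl, 5 uM MgCl2, 0.05% BSA, 1 mM DTT. Fluorescence read at Ex 485/Em 525 nm.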
% is set by controls: 0 for no effect and ±100 for the full control effect; potency is the fitted concentration of half-maximal effect.

Protein sequences, listed by entry. Tags and fused reporters are not part of them. Lines headed by an entry give the natural chain unless they say otherwise; changes in a name come on top.
UniProt O00167: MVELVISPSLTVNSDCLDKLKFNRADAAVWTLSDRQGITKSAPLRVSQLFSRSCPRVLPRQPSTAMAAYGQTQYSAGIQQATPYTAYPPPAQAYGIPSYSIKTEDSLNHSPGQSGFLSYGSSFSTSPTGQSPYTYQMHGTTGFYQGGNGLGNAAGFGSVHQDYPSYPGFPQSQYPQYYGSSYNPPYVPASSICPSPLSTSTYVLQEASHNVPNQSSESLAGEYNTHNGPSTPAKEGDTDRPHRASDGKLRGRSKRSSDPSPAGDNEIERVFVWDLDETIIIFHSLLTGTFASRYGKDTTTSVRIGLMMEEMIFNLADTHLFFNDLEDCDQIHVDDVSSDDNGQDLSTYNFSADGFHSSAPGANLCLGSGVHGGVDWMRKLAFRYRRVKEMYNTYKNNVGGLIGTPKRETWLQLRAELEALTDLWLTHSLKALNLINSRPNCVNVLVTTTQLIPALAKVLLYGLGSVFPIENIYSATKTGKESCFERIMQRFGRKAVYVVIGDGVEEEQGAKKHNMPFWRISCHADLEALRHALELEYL

Question: For `Cc1cc(NC(=O)c2ccccc2)nc(C)n1`, which Potency is on record?
Answer: inconclusive: 20 µM [inhibitor, single point]

Question: Which Potency does the source give for `O=C(N/C(=C/c1ccc2c(c1)OCO2)C(=O)N1CCOCC1)c1cccs1` here?
Answer: inconclusive: 22.4 µM [inhibitor, single point]

Question: With `O=C(Nc1ccc(F)cc1F)C1CCN(c2ncnc3c2sc2cccc(F)c23)CC1` as the compound, how does the Potency read?
Answer: inconclusive: 17.8 µM [inhibitor, single point]

Question: For `COc1cccc(-c2nnn(CC(=O)N3CCCCC3)n2)c1`, which Potency is on record?
Answer: inconclusive: 25.1 µM [inhibitor, single point]

Question: With `Cc1ccc([N+](=O)[O-])cc1NC(=O)Nc1onc(C)c1C` as the compound, how does the Potency read?
Answer: inconclusive: 79.4 µM [inhibitor, single point]

Question: How did the Potency turn out when `C=C1CCC2C(C)(C)[C@H](O)CC[C@@]2(C)[C@@H]1COc1cc(=O)oc2ccccc12` (stereo partly drawn) was run?
Answer: inactive

Question: Which Potency does the source give for `CCOC(=O)c1c(C)n(C)c2cc([N+](=O)[O-])c(O)c([N+](=O)[O-])c12` here?
Answer: inconclusive: 158 µM [inhibitor, partial curve, poor fit]

Question: `CN(C)/C=C/c1onc(-c2c(F)cccc2Cl)c1C#N` was tested. Which Potency did it give?
Answer: inconclusive: 100 µM [inhibitor, partial curve]

Question: `O=[N+]([O-])c1ccccc1/C=C/CN1CCC(O)CC1` was tested. Which Potency did it give?
Answer: inconclusive: 22.4 µM [inhibitor, single point]

Question: `CCNC(=O)C(C)Oc1ccc(Cl)cc1Cl` (stereo not drawn) was tested. Which Potency did it give?
Answer: inconclusive: 100 µM [inhibitor, single point]

Question: For `CCOc1ccc(NC(=O)COC(=O)c2cc(=O)c3ccccc3o2)cc1`, which Potency is on record?
Answer: inconclusive: 224 µM [inhibitor, partial curve, poor fit]

Question: How did the Potency turn out when `Cc1ccc(OCC(=O)N(Cc2ccco2)C2CCS(=O)(=O)C2)cc1C` (stereo not drawn) was run?
Answer: inconclusive: 1260 µM [inhibitor, partial curve, poor fit]

Question: `CCOc1cc(C2C(C(=O)OC(C)C)=C(C)NC3=C2C(=O)CCC3)cc([N+](=O)[O-])c1O` (stereo not drawn) was tested. Which Potency did it give?
Answer: inconclusive: 100 µM [inhibitor, single point]

Question: How did the Potency turn out when `Cc1ccc(C)c(NC(=O)CSc2c(C)n[nH]c2C)c1` was run?
Answer: inconclusive: 316 µM [inhibitor, partial curve, poor fit]

Question: Which Potency does the source give for `COc1ccc(OCC(=O)Nc2cc(-c3nn(C)c(=O)c4ccccc34)ccc2N2CCOCC2)cc1` here?
Answer: inconclusive: 158 µM [inhibitor, partial curve, poor fit]

Question: Which Potency does the source give for `C=C[C@]1(C)C=C2CC[C@H]3[C@@](C)(CCC[C@@]3(C)C(=O)O)[C@@H]2CC1` here?
Answer: inactive

Question: With `CCN1/C(=C/c2ccc3cc(C)ccc3[n+]2CC)Sc2cc(C)c(C)cc21` as the compound, how does the Potency read?
Answer: inconclusive: 158 µM [activator, partial curve]

Question: `COc1ccc(OC)c(S(=O)(=O)N2CCCC(N3CCN(c4ccccc4)CC3)C2)c1` (stereo not drawn) was tested. Which Potency did it give?
Answer: inconclusive: 28.2 µM [inhibitor, single point]

Question: Which Potency does the source give for `C=CCn1c(SCC(=O)N2CCCC2=O)nc2sc(CC)cc2c1=O` here?
Answer: inactive

Question: `CCOc1ccc(C(=O)O)cc1OC` was tested. Which Potency did it give?
Answer: inactive

Question: With `CCCCn1c(=O)[nH]c2nc3cc(N)ccc3nc2c1=O` as the compound, how does the Potency read?
Answer: inconclusive: 39.8 µM [activator, partial curve]

Question: `COCCCn1c(=O)c2sccc2n(Cc2ccccc2C)c1=O` was tested. Which Potency did it give?
Answer: inconclusive: 112 µM [inhibitor, single point]

Question: Which Potency does the source give for `CC(C)(C)CN1CCNC(=O)C1CC(=O)NC1Cc2ccccc2C1` (stereo not drawn) here?
Answer: inconclusive: 25.1 µM [inhibitor, single point]

Question: Which Potency does the source give for `COc1ccc(N=Nc2ccc(O)c(P(=O)(c3ccccc3)c3ccccc3)c2)cc1` here?
Answer: inconclusive: 158 µM [inhibitor, partial curve, poor fit]

Question: How did the Potency turn out when `CC(=O)N1c2ccc(S(=O)(=O)N3CCC(C(=O)NCc4ccc(F)cc4)CC3)cc2CC1C` (stereo not drawn) was run?
Answer: inconclusive: 178 µM [inhibitor, single point]

Question: Which Potency does the source give for `CN(C)c1nc(Cl)nc(NCCOc2ccccc2)n1` here?
Answer: inactive

Question: Which Potency does the source give for `CCOC(=O)C1=C(COC(=O)C(CC)Oc2ccccc2)NC(=O)NC1C` (stereo not drawn) here?
Answer: inactive

Question: With `O=C(CNC(=O)c1cccc(Br)c1)N/N=C/c1cccnc1` as the compound, how does the Potency read?
Answer: inconclusive: 22.4 µM [inhibitor, single point]

Question: Which Potency does the source give for `COCCn1c(SCc2nc3sc(C(=O)OC)c(C)c3c(=O)[nH]2)nc2ccccc21` here?
Answer: inactive

Question: `COc1ccc(/C=C/C(=O)Oc2ccc(C)cc2)cc1` was tested. Which Potency did it give?
Answer: inconclusive: 22.4 µM [inhibitor, single point]

Question: How did the Potency turn out when `Cc1c(NC(=S)NC(=O)c2sc3ccccc3c2Cl)cccc1C(=O)O` was run?
Answer: inactive

Question: How did the Potency turn out when `CCOC(=O)c1c(C)[nH]c(C(=O)N2CCN(CC)CC2)c1C` was run?
Answer: inconclusive: 14.1 µM [inhibitor, single point]

Question: `CCc1c(C)nc(SCC(=O)Nc2nc(-c3ccc(OC)cc3)cs2)[nH]c1=O` was tested. Which Potency did it give?
Answer: inactive

Question: With `Cc1cc(C)cc(C(=O)Nn2cnnc2)c1` as the compound, how does the Potency read?
Answer: inconclusive: 20 µM [inhibitor, single point]

Question: How did the Potency turn out when `CC(C)c1ccc(C2c3[nH]c4ccccc4c3C[C@H]3C(=O)N(c4ccccc4C(=O)N4CCC[C@H]4C(=O)O)C(=O)N23)cc1` (stereo partly drawn) was run?
Answer: inactive

Question: For `O=[N+]([O-])c1cnc(Sc2ccncn2)s1`, which Potency is on record?
Answer: inactive

Question: Which Potency does the source give for `Cc1c(NC(=O)CN2CCC(C(N)=O)CC2)cccc1[N+](=O)[O-]` here?
Answer: inconclusive: 39.8 µM [inhibitor, partial curve, poor fit]

Question: How did the Potency turn out when `Cc1ccccc1C(=O)OCc1cnc(Cl)s1` was run?
Answer: inconclusive: 100 µM [inhibitor, single point]

Question: With `COc1ccc2nc(N/C(N)=N/C(=S)Nc3c(C)cccc3C)nc(C)c2c1` as the compound, how does the Potency read?
Answer: inconclusive: 100 µM [inhibitor, single point]

Question: `CC(=O)c1ccc(N2CCN(C(=O)Nc3ccc(F)cc3F)CC2)cc1` was tested. Which Potency did it give?
Answer: inactive

Question: `COc1cc(C(=O)Nc2ccccc2SCc2cc(=O)n3nc(C)sc3n2)cc(OC)c1OC` was tested. Which Potency did it give?
Answer: inconclusive: 28.2 µM [inhibitor, single point]

Question: For `Cc1ccc2c(c1)c1ncn(Cc3ccc(F)cc3)c(=O)c1n2C`, which Potency is on record?
Answer: inconclusive: 562 µM [inhibitor, single point]

Question: Which Potency does the source give for `COc1ccccc1N/C(=N/c1nc(C)cc(C)n1)NC(C)=O` here?
Answer: inactive

Question: With `Cc1nc2ccc(C(=O)N(C)CC3CCCN(CCc4ccc(Cl)cc4)C3)cc2[nH]1` (stereo not drawn) as the compound, how does the Potency read?
Answer: inconclusive: 22.4 µM [inhibitor, single point]

Question: How did the Potency turn out when `Cc1ccc(Sc2cc(C(=O)NCCCN(C)C)c3ccccc3n2)cc1` was run?
Answer: inconclusive: 89.1 µM [inhibitor, single point]

Question: How did the Potency turn out when `O=C(N/N=C/c1ccccn1)c1ccc(Br)o1` was run?
Answer: inactive

Question: How did the Potency turn out when `Cc1onc(-c2ccccc2Cl)c1C(=O)NCc1nc(-c2ccc(C(F)(F)F)cc2)no1` was run?
Answer: inconclusive: 501 µM [inhibitor, single point]

Question: For `COc1ccc(N(CC(=O)Nc2cccc(C(C)=O)c2)S(=O)(=O)c2ccc(NC(C)=O)cc2)cc1`, which Potency is on record?
Answer: inconclusive: 22.4 µM [inhibitor, single point]

Question: With `Cc1ccc(CNC(=O)C2CCC(=O)N2Cc2ccc(F)cc2)cc1` (stereo not drawn) as the compound, how does the Potency read?
Answer: inconclusive: 141 µM [inhibitor, single point]

Question: How did the Potency turn out when `O=c1oc2cc(S(=O)(=O)NCCCO)ccc2c2ccc(S(=O)(=O)NCCCO)cc12` was run?
Answer: inconclusive: 200 µM [inhibitor, partial curve, poor fit]

Question: How did the Potency turn out when `Cc1cccc(C(=O)NC(NCc2ccco2)C(Cl)(Cl)Cl)c1` (stereo not drawn) was run?
Answer: inconclusive: 22.4 µM [inhibitor, single point]

Question: Which Potency does the source give for `O=C(NCc1ccc2c(c1)OCO2)c1n[nH]c(=O)c2ccccc12` here?
Answer: inactive

Question: How did the Potency turn out when `O=C(NCc1ccncc1)C(=O)NCC1OCCN1S(=O)(=O)c1ccc(Br)cc1` (stereo not drawn) was run?
Answer: inconclusive: 100 µM [inhibitor, single point]

Question: Which Potency does the source give for `COc1ccc(NC(=O)CCS(=O)(=O)c2ccc(Cl)cc2)cc1` here?
Answer: inconclusive: 89.1 µM [inhibitor, single point]

Question: `CCN(CC)S(=O)(=O)c1ccc(NC(=O)c2ccccc2N(C)S(C)(=O)=O)cc1` was tested. Which Potency did it give?
Answer: inactive

Question: Which Potency does the source give for `CC1(C(=O)O)CCC(C(=O)NC2CCCCCC2)C1(C)C` (stereo not drawn) here?
Answer: inconclusive: 20 µM [inhibitor, single point]

Question: Which Potency does the source give for `O/N=C\c1ccc2noc(-c3ccc(Cl)cc3)c2c1` here?
Answer: inconclusive: 100 µM [inhibitor, single point]

Question: For `Cc1ccc(NC(=O)CN2C(=O)S/C(=C/c3ccc(-c4cc(C(=O)O)ccc4C)o3)C2=O)cc1C`, which Potency is on record?
Answer: inactive

Question: `NNC(=O)c1cc2sccc2s1` was tested. Which activity, negative = inhibition did it give?
Answer: inconclusive: -33% [inhibitor]

Question: How did the Potency turn out when `C=CCOC(=O)C1=C[C@H](c2cn(C(C)=O)c3ccccc23)[C@@H](CCCO)[C@H](OCC)O1` was run?
Answer: inconclusive: 20 µM [inhibitor, single point]

Question: `CC(C)(C)c1ccc(Cc2n[nH]c(=S)[nH]c2=O)cc1` was tested. Which Potency did it give?
Answer: inactive

Question: Which Potency does the source give for `Cc1c(OC(C(=O)O)c2ccccc2)ccc2c(-c3ccccc3)cc(=O)oc12` (stereo not drawn) here?
Answer: inconclusive: 22.4 µM [inhibitor, single point]

Question: With `Cc1ccc(N2C(=O)C3C(C(=O)c4ccccc4)=NN(c4ccccc4)C3C2=O)cc1` (stereo not drawn) as the compound, how does the Potency read?
Answer: inactive

Question: How did the Potency turn out when `Clc1ccc2c(c1)C=Nc1c(NCc3ccccc3)ncnc1O2` was run?
Answer: inconclusive: 28.2 µM [inhibitor, single point]

Question: With `COc1cc2ncnc(Nc3ccc4c(c3)OCO4)c2cc1OC` as the compound, how does the Potency read?
Answer: inconclusive: 20 µM [inhibitor, single point]

Question: `COc1ccc(S(=O)(=O)NCc2ccc3c(c2)OCO3)cc1OC` was tested. Which Potency did it give?
Answer: inconclusive: 20 µM [inhibitor, single point]

Question: `Cc1cccc(N2C(=O)c3cccc4c(N(C)CCO)ccc(c34)C2=O)c1` was tested. Which Potency did it give?
Answer: inconclusive: 25.1 µM [activator, partial curve]

Question: `CCOC(=O)c1ccc(CSC(=N)N)o1` was tested. Which Potency did it give?
Answer: inconclusive: 22.4 µM [inhibitor, single point]
